For some assays here: Expression grades refer to the transcript from which the peptide derives; gene names, where given, were looked up from the sequence.
What was measured:
[1] = test system: HLA-A*02; assay: Identification and relative LC-MS quantitation of HLA-A*02-presented tumor-associated peptides on tissue samples (presentation profiles, Tables 13A, 13B, 15, FIG. 1); design: species or system human; key to Presentation score NHL / Presentation score CLL / Presentation score BRCA / Presentation score AML / Presentation score GB / Presentation score NSCLC / Presentation score GBC_CCC / Presentation score UEC / Presentation score MEL / Presentation score OSCAR / Presentation score GC / Presentation score UBC / Presentation score OC / Presentation score RCC / Presentation score CRC / Presentation score PCA / Presentation score HCC / Presentation score PC / Presentation score SCLC: specifically presented on tumors (++++); very highly over-presented on tumors compared to a panel of normal tissues (+++); highly over-presented on tumors compared to a panel of normal tissues (++); over-presented on tumors compared to a panel of normal tissues (+); details: for Presentation score NSCLC: non-small cell lung cancer (N = 90) vs panel of normal tissues (N = 262); for Peptide Presentation on cancer entities: HLA-A*02-binding tumor-associated peptides
[2] = test system: source genes (mRNA); assay: Gene and exon expression of source genes, TCGA tumor samples compared with normal tissue samples (Lonsdale, 2013) (Table 17); design: species or system human
[3] = test system: source genes (mRNA); assay: Expression profiling of source genes by in-house RNASeq of tumor and normal tissues (Table 18, FIG. 2); design: species or system human; key: very highly over-expressed in tumors compared to a panel of normal tissues (+++); highly over-expressed in tumors compared to a panel of normal tissues (++); over-expressed in tumors compared to a panel of normal tissues (+); details: source gene of peptide; for Expression score GB: glioblastoma (N = 24) vs panel of normal tissues; for Expression score NHL: non-Hodgkin lymphoma (N = 10) vs panel of normal tissues; for Expression score NSCLC: non-small cell lung cancer (N = 11) vs panel of normal tissues
[4] = Table 13A, cancer entities on which the peptide was found presented

Question: For “254: peptide found in PFAS (gene looked up) (KLQGKLPEL; listed as Homo sapiens) [compound 254]”, which “Presentation score NHL” value ([1]; HLA-A*02 peptides, non-Hodgkin lymphoma (N = 18) vs panel of normal tissues (N = 262)) is on record?
Answer: ++++

Question: And the “Presentation score NSCLC” value ([1]; HLA-A*02 peptides)?
Answer: ++++

Question: What about the “Peptide Presentation on cancer entities” value [1, 4] of the same substance?
Answer: NSCLC, NHL

Question: And the “Peptide Presentation on cancer entities” value ([1]; Table 13B, presentation on additional cancer entities)?
Answer: UEC, AML

Question: And the “Over-expression category of source gene (target coverage), COAD” value ([2]; COAD = Colon and rectal adenocarcinoma (N = 462), same cutoff)?
Answer: C (>=5% of tumors above the cutoff, but <20%)

Question: What about the “Over-expression category of source gene (target coverage), DLBC” value ([2]; DLBC = Lymphoid neoplasm diffuse large B-cell lymphoma (N = 48), same cutoff) of the same substance?
Answer: B (>= 20% of tumors above the cutoff, but <50%)

Question: And the “Over-expression category of source gene (target coverage), ESCA” value ([2]; ESCA = Esophageal cancer (N = 185), same cutoff)?
Answer: C (>=5% of tumors above the cutoff, but <20%)

Question: What about the “Over-expression category of source gene (target coverage), GBM” value ([2]; GBM = Glioblastoma multiforme (N = 169), same cutoff) of the same substance?
Answer: C (>=5% of tumors above the cutoff, but <20%)

Question: What about the “Over-expression category of source gene (target coverage), KIRP” value ([2]; KIRP = Papillary kidney carcinoma (N = 291), same cutoff) of the same substance?
Answer: C (>=5% of tumors above the cutoff, but <20%)

Question: What about the “Over-expression category of source gene (target coverage), LAML” value ([2]; LAML = Acute Myeloid Leukemia (N = 173), same cutoff) of the same substance?
Answer: A (>=50% of tumors above the cutoff)

Question: What about the “Over-expression category of source gene (target coverage), LGG” value ([2]; LGG = Lower grade glioma (N = 534), same cutoff) of the same substance?
Answer: C (>=5% of tumors above the cutoff, but <20%)

Question: And the “Over-expression category of source gene (target coverage), OV” value ([2]; OV = Ovarian serous cystadenocarcinoma (N = 309), same cutoff)?
Answer: C (>=5% of tumors above the cutoff, but <20%)

Question: And the “Over-expression category of source gene (target coverage), READ” value ([2]; READ = Colon and rectal adenocarcinoma (N = 167), same cutoff)?
Answer: C (>=5% of tumors above the cutoff, but <20%)

Question: And the “Over-expression category of source gene (target coverage), SKCM” value ([2]; SKCM = Skin cutaneous melanoma (N = 473), same cutoff)?
Answer: B (>= 20% of tumors above the cutoff, but <50%)

Question: What about the “Over-expression category of source gene (target coverage), STAD” value ([2]; STAD = Stomach adenocarcinoma (N = 415), same cutoff) of the same substance?
Answer: C (>=5% of tumors above the cutoff, but <20%)

Question: And the “Over-expression category of source gene (target coverage), UCEC” value ([2]; UCEC = Uterine corpus endometrial carcinoma (N = 546), same cutoff)?
Answer: B (>= 20% of tumors above the cutoff, but <50%)

Question: What about the “Expression score AML” value ([3]; acute myeloid leukemia (N = 11) vs panel of normal tissues) of the same substance?
Answer: +

Question: And the “Expression score GC” value ([3]; gastric cancer (N = 11) vs panel of normal tissues)?
Answer: +

Question: And the “Expression score GB” value [3]?
Answer: +

Question: What about the “Expression score NHL” value [3] of the same substance?
Answer: ++

Question: And the “Expression score NSCLC” value [3]?
Answer: +

Question: What about the “Expression score OC” value ([3]; ovarian cancer (N = 12) vs panel of normal tissues) of the same substance?
Answer: +

Question: What about the “Expression score SCLC” value ([3]; small cell lung cancer (N = 10) vs panel of normal tissues) of the same substance?
Answer: +

Question: And the “Expression score UEC” value ([3]; uterine cancer (N = 10) vs panel of normal tissues)?
Answer: +

Question: With “59: peptide found in TNC (gene looked up) (KLLDPQEFTL; listed as Homo sapiens) [compound 59]” as the substance, how does the “Presentation score GB” value ([1]; HLA-A*02 peptides, glioblastoma (N = 41) vs panel of normal tissues (N = 262)) read?
Answer: ++++

Question: And the “Presentation score NSCLC” value ([1]; HLA-A*02 peptides)?
Answer: ++++

Question: And the “Peptide Presentation on cancer entities” value [1, 4]?
Answer: GB, NSCLC

Question: And the “Target coverage: over-expression category of source gene, ESCA” value ([2]; Esophageal cancer (N = 185), cutoff more than 2-fold above highest 75% percentile of normal tissue samples)?
Answer: B (>= 20% of tumors above the cutoff, but <50%)

Question: What about the “Target coverage: over-expression category of source gene, GBM” value ([2]; Glioblastoma multiforme (N = 169), cutoff more than 2-fold above highest 75% percentile of normal tissue samples) of the same substance?
Answer: A (>=50% of tumors above the cutoff)

Question: And the “Target coverage: over-expression category of source gene, LGG” value ([2]; Lower grade glioma (N = 534), cutoff more than 2-fold above highest 75% percentile of normal tissue samples)?
Answer: B (>= 20% of tumors above the cutoff, but <50%)

Question: And the “Target coverage: over-expression category of source gene, LUAD” value ([2]; Lung adenocarcinoma (N = 517), cutoff more than 2-fold above highest 75% percentile of normal tissue samples)?
Answer: C (>=5% of tumors above the cutoff, but <20%)

Question: And the “Target coverage: over-expression category of source gene, LUSC” value ([2]; Lung squamous cell carcinoma (N = 503), cutoff more than 2-fold above highest 75% percentile of normal tissue samples)?
Answer: C (>=5% of tumors above the cutoff, but <20%)

Question: What about the “Target coverage: over-expression category of source gene, SKCM” value ([2]; Skin cutaneous melanoma (N = 473), cutoff more than 2-fold above highest 75% percentile of normal tissue samples) of the same substance?
Answer: B (>= 20% of tumors above the cutoff, but <50%)

Question: What about the “Expression score OSCAR” value ([3]; esophageal cancer incl. gastric-esophageal junction (N = 11) vs panel of normal tissues) of the same substance?
Answer: +++

Question: What about the “Expression score GB” value [3] of the same substance?
Answer: +++

Question: What about the “Expression score NHL” value [3] of the same substance?
Answer: +

Question: What about the “Expression score NSCLC” value [3] of the same substance?
Answer: +++

Question: What about the “Expression score UBC” value ([3]; urinary bladder cancer (N = 10) vs panel of normal tissues) of the same substance?
Answer: +
